The values below come from paper PMC8169937.

Protein sequences, listed by entry. Tags and fused reporters are not part of them. Lines headed by an entry give the natural chain unless they say otherwise; changes in a name come on top.
UniProt Q562E2: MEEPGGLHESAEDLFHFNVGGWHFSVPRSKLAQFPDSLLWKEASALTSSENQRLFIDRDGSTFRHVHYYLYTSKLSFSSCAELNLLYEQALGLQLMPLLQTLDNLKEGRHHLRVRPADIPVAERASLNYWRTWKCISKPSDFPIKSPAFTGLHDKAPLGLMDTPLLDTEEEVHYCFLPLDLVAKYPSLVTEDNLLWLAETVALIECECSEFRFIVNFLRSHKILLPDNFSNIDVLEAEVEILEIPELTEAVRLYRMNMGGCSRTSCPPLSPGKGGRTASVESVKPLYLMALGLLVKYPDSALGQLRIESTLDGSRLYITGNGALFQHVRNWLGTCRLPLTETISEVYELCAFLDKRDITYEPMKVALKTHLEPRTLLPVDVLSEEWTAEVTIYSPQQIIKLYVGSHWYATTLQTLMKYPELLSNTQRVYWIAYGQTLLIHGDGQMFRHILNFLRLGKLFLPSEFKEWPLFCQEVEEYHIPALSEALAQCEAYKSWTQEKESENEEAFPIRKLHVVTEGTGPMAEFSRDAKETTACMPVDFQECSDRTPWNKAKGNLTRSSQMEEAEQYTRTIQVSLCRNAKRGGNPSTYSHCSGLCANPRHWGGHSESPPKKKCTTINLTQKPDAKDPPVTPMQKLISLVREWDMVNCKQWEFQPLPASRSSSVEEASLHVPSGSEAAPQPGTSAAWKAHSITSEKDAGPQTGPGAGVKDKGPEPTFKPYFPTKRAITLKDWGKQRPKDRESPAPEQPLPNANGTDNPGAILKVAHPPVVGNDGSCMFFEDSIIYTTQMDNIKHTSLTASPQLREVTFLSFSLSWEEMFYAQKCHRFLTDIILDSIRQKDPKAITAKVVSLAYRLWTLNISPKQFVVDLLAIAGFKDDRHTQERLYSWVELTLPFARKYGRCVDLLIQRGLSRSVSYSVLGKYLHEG
UniProt O09106: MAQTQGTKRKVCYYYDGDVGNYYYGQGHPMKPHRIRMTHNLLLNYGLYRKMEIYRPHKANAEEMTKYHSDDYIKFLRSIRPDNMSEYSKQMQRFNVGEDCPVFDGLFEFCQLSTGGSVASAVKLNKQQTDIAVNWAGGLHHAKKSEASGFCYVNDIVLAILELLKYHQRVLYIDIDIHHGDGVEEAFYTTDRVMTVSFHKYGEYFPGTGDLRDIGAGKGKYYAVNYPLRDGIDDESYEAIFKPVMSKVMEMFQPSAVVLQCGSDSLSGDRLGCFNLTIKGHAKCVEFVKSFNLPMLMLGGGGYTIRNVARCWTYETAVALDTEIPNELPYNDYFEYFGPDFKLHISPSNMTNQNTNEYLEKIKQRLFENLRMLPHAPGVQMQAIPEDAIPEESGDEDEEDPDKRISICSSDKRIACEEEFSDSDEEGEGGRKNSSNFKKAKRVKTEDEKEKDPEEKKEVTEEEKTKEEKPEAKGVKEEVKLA
UniProt P70288: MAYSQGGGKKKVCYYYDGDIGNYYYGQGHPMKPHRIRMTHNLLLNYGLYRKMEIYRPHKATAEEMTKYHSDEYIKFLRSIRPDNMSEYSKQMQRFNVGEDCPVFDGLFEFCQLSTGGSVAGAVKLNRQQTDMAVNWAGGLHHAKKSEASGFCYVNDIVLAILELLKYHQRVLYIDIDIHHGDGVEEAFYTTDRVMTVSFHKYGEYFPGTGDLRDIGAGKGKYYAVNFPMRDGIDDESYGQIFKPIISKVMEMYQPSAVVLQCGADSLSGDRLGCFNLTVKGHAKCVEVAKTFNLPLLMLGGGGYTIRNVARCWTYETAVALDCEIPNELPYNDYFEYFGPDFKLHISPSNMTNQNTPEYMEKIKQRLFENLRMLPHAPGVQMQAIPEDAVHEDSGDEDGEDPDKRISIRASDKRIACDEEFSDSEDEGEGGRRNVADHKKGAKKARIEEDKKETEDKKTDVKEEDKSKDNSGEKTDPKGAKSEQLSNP

For assay [1], the target named is KCTD19 (mouse (endogenous in testis)) (UniProt Q562E2). Description: affinity purification with mass spectrometry; endogenous KCTD19 immunoprecipitated with anti-KCTD19-N from mouse testis extracts; in-gel digestion, LC-MS/MS; proteins found in the control IgG-IP excluded.
Assay [2] has as its target T1, ZFP541 (mouse (endogenous in testis)) (UniProt Q0GGX2).
T1 sequence: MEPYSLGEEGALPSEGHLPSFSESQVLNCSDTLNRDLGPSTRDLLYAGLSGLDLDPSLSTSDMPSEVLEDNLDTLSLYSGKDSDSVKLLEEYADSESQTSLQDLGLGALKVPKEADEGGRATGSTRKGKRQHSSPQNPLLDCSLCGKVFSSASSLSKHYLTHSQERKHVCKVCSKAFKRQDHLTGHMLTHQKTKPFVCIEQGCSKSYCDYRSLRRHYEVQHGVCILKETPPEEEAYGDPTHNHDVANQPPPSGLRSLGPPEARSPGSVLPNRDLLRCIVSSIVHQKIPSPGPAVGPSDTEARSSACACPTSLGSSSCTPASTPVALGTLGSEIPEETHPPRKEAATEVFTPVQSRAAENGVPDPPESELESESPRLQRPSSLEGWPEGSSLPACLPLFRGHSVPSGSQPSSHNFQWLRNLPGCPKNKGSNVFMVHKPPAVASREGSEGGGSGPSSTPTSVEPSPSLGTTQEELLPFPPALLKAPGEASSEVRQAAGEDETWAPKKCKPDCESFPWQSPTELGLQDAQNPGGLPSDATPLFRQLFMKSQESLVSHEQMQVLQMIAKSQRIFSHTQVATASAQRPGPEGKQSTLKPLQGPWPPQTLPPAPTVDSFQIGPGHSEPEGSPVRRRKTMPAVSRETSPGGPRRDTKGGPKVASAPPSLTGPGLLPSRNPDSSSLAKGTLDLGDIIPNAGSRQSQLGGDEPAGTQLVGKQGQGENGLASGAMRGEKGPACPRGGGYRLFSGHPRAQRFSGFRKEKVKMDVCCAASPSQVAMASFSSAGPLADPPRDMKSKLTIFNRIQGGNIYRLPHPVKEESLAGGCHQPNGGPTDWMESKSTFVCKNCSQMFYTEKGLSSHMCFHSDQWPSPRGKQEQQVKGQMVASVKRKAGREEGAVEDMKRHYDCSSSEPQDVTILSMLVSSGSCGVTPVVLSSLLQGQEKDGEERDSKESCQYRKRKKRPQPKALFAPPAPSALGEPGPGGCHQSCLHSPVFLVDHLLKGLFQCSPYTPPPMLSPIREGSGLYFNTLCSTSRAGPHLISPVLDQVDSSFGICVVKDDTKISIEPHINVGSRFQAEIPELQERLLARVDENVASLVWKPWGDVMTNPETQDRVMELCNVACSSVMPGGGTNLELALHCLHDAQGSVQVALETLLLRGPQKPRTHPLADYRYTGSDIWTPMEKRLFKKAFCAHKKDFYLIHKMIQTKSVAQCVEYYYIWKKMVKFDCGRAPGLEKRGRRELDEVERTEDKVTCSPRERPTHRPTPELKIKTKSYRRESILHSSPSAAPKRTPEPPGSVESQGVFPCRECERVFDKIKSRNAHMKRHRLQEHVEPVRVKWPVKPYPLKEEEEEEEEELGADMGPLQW
Description: affinity purification with mass spectrometry; endogenous ZFP541 immunoprecipitated with rabbit anti-ZFP541 crosslinked to protein A-Dynabeads from the chromatin-bound fraction of WT mouse testis extracts; LC-MS/MS; proteins found in the control IgG-IP excluded.

The target in assay [3] is T1, ZFP541 (mouse (endogenous in testis)). Description: affinity purification with mass spectrometry; ZFP541-IP from the MNase-released nucleosome fraction of mouse testis extracts; LC-MS/MS; proteins found in the control IgG-IP excluded.
The target is the same in assay [4]. Description: affinity purification with mass spectrometry; ZFP541-IP from the chromatin-unbound fraction of mouse testis extracts; LC-MS/MS; proteins found in the control IgG-IP excluded.

No constants are given. Whether binding was seen depends on the method and setting. Binding seen in cells or lysates may run through a third protein. A yes stands for co-enrichment or nearness to the bait. Other partners may have been found.

As for “HDAC1 (from UniProt O09106 1-482) (enzyme)”, the binding entry in assay [1] is on record as “binds”.

As for “HDAC2 (from UniProt P70288 1-488) (enzyme)”, the binding entry in assay [2], in assay [3], in assay [4] and in assay [1] was “binds” each time.

Take KCTD19 (from UniProt Q562E2-2): the binding entry in assay [2], in assay [3] and in assay [4] was “binds” in each case.

B1: ZFP541 (protein, UniProt Q0GGX2 1-1363)
chain: MEPYSLGEEGALPSEGHLPSFSESQVLNCSDTLNRDLGPSTRDLLYAGLSGLDLDPSLSTSDMPSEVLEDNLDTLSLYSGKDSDSVKLLEEYADSESQTSLQDLGLGALKVPKEADEGGRATGSTRKGKRQHSSPQNPLLDCSLCGKVFSSASSLSKHYLTHSQERKHVCKVCSKAFKRQDHLTGHMLTHQKTKPFVCIEQGCSKSYCDYRSLRRHYEVQHGVCILKETPPEEEAYGDPTHNHDVANQPPPSGLRSLGPPEARSPGSVLPNRDLLRCIVSSIVHQKIPSPGPAVGPSDTEARSSACACPTSLGSSSCTPASTPVALGTLGSEIPEETHPPRKEAATEVFTPVQSRAAENGVPDPPESELESESPRLQRPSSLEGWPEGSSLPACLPLFRGHSVPSGSQPSSHNFQWLRNLPGCPKNKGSNVFMVHKPPAVASREGSEGGGSGPSSTPTSVEPSPSLGTTQEELLPFPPALLKAPGEASSEVRQAAGEDETWAPKKCKPDCESFPWQSPTELGLQDAQNPGGLPSDATPLFRQLFMKSQESLVSHEQMQVLQMIAKSQRIFSHTQVATASAQRPGPEGKQSTLKPLQGPWPPQTLPPAPTVDSFQIGPGHSEPEGSPVRRRKTMPAVSRETSPGGPRRDTKGGPKVASAPPSLTGPGLLPSRNPDSSSLAKGTLDLGDIIPNAGSRQSQLGGDEPAGTQLVGKQGQGENGLASGAMRGEKGPACPRGGGYRLFSGHPRAQRFSGFRKEKVKMDVCCAASPSQVAMASFSSAGPLADPPRDMKSKLTIFNRIQGGNIYRLPHPVKEESLAGGCHQPNGGPTDWMESKSTFVCKNCSQMFYTEKGLSSHMCFHSDQWPSPRGKQEQQVKGQMVASVKRKAGREEGAVEDMKRHYDCSSSEPQDVTILSMLVSSGSCGVTPVVLSSLLQGQEKDGEERDSKESCQYRKRKKRPQPKALFAPPAPSALGEPGPGGCHQSCLHSPVFLVDHLLKGLFQCSPYTPPPMLSPIREGSGLYFNTLCSTSRAGPHLISPVLDQVDSSFGICVVKDDTKISIEPHINVGSRFQAEIPELQERLLARVDENVASLVWKPWGDVMTNPETQDRVMELCNVACSSVMPGGGTNLELALHCLHDAQGSVQVALETLLLRGPQKPRTHPLADYRYTGSDIWTPMEKRLFKKAFCAHKKDFYLIHKMIQTKSVAQCVEYYYIWKKMVKFDCGRAPGLEKRGRRELDEVERTEDKVTCSPRERPTHRPTPELKIKTKSYRRESILHSSPSAAPKRTPEPPGSVESQGVFPCRECERVFDKIKSRNAHMKRHRLQEHVEPVRVKWPVKPYPLKEEEEEEEEELGADMGPLQW
With B1, in assay [1], the binding result is reported as “binds”.

B2: terminal deoxynucleotidyltransferase-interacting factor 1 (TDIF1) (protein, UniProt Q99LB0 1-328)
chain: MGATGDTEQPRGPGGAERGGLELGDAGAAGQPVLTNPWNIMIKHRQVQRRGRRSQMTTSFTDPAISMDLLRAVLQPSINEEIQGVFNKYMKFFQKAALNVRDNVGEEVDAEQLIQEACRSCLEQAKLLFSDGEKVIPRLAHELPGIKRGRQAEEESHRGSPIPKKRKGRPPGHVLSNDRAAAGMVWKQKSCEPIRREGPKWDPARLNESTTFVLGSRANKALGMGGTRGRIYIKHPHLFKYAADPQDKHWLAEQHHMRATGGKMAYLLIEEDIRDLAASDDYRGCLDLKLEELKSFVLPSWMVEKMRKYMETLRTENEHRAAEAPPQT
For the molecule B2, the binding result in assay [2], in assay [3], in assay [4] and in assay [1] was “binds” each time.

B3: MIDEAS (protein, UniProt E9Q2I4 1-1089)
chain: MNLQAQSKAQSKRKRCPFGDQEPAAKEQPPPLQSPPQSLRAKEEQYGAHEGPTGVASTTQPVELSPPNNLALLNSVVYGSERTTAAMLSQQAQVSSVKWPSSVMAPGRGLERGGGGGISDSGWQQQPGQPPPHSTWNHLPLYGGPKGSPHPGVGVPPYYNHPEALKGNKPGGPQLDHYGNAVQPMVPQKVQLEVGRPQAPLNSFHAAKKPPNQTLPLQPFQLAFGHQVNRQVFRQGPQPSNPTASFPPQKQQQQQQPAALPQMQLFENYYPMHQLPSQQHQDFGLAPGGPLGQTHLAHRSMAPYPFSHNPDMNPELRKALLQDPASQPVLPQPQMAFPRRSRRLSKEGILPSNSLDGAGTQPGQEPASNLFLHHWSLPQPPPGTLGQPHSEALGFPLELRESQMLADGDRLAPNGREREPPAMGNEEVMRAGGLGDCGQMIRSGVIQSTKRRRRVSQEANLLTLAQKAVELASMQDANGSEEKRKSVLATTSRCGVEFSEPALAAKRAREESGMVPLIIPVSVPVRTVGPTEVAQVGGADEDGTGLEQYPTEHKPSVIVTRRRSTRVPGTDAAAQAEDLNVKLEGEPSMRKPKQRPRPEPLIIPTKAGTFIAPPVYSNITPYQSHLRSPVRLADHPSERSFEPPPYTPPPILSPVREGSGLYFNAIISTSNIPAPPPITPKSAHRTLLRSNSSEVTPPVLSVMGEATPVSIEPRINVGTRFQAEIPMMRDRALAAFDPHKADLVWQPWEHLESSWEKQRQVDDLLTAACSSIFPGAGTNQELALHYLHESRGDILEALNKLLLRKPLRPHNHPLATYHYTGSDQWKTAERKLFNKGIAIYKKDFFLVQKLIQTKTVAQCVEFYYTYKKQVKIGRNGTLTFGDLDIGDEKSGQEEVEVDVKTSQKFPRVPPPRRESPSEERLEPKREVTEPRKEGEEEVPDTQEKGEQEEGRERCRRAAAVKATQTLQANEAANDVLILRSHEPNAPGSAGIQTSEKPREGPGKSRRALPFTEKKKKAEAFNKTQNQENTFPCKKCGRVFYKVKSRSAHMKSHAEQEKKAAALRLKEKEAAAAAAHQQALREESGEGEKG
Turning to B3, the binding entry in assay [1] is “binds”.

B4: Transcription regulatory factor 1 (TRERF1) (protein, UniProt Q8BXJ2 1-1205)
chain: MGDQQLYKTNHVGHGGENLFYQQPPLGVHSGLGHSYGNTISGAGMDAPQASPISPHFPQDTRDGLGLPIGSKNLGQMDTSRQGGWGSHAGPGNHVQLRSNLANSNMMWGTPTQVEPADGYQYTYSQASEIRTQKLTSGVLHKLDSFTQVFANQNLRIQVNNMAQVLHTQSAVMDGASDSALRQLLSQKPVEPSASAIASRYQQVPQQPHPGFTGGLPKPALPVGQHAPQGHLYYDYQQPLAQMSMQGGQPLQAPQVLSGHMQQLQQHQYYPQPPPQQQQAGLQRISVQEMQQQQQPQQIRPSPPQQQQQLQLQQRQSSLQIPQYYQPQPMMQHLQEQQQPSMHLQPPSYHRDPHQYTPEQAHAVQLIQLGSMPQYYYQEPQQAYSHPLYPQSHLSQHQQREDGQLKTYSSDRQTPAMLSSHGDMGTSDTGVADPASSEMTRVTSTLPHQPLLSPSGIHLNNMGSQHQQPPSPSAMWPQMHLPDGRAQSGSPESSSGQTKGVFGEQFDAKNKLTCSICLKEFKSLPALNGHMRSHGGMRASPSLKQEEGEKAPPPQPQPQPQPQQPLPPPPPPPPPPQLPPEAERLTPMVMPVSVPVKLIPPKPSSQGFTNSVAATPAARDKPASSMSDDEMPVLEIPRKHPPIAAKVEEPLKNLPEKKKFRHRPEPLFIPPPPSSYTPNPTSYSGATLYQSQLRSPRILGDHLLLDPAHELPPYTPPPMLSPVRQGSGLFSNVLISGHGPGVHPQLPLTPLTPTPRVLLCRSSSIDGSNVTVTPGPGEQTVDVEPRINIGLRFQAEIPELQDVSALAQDTHRATLVWKPWPELENQALQQQVENLLNLCCSSALPGGGTNSEFALHSLFEAKGDVMATLEMLLLRKPVRLKCHPLANYHYAGSDKWTSLERKLFNKALATYSKDFIFVQKMVKSKTVAQCVEYYYTWKKIMRLGRKHRTRLAEIIDDCMTSEEEEEAEEEEEDPEEDRKSIKEEESEVAKSPEPPPAPALAPTEGPPMQAVGQQPSGNFICEMPNCGAVFSSRQALNGHARIHGGTNQVAKTRGAIPSGKQKPGGTQSGYCSVKSSPSHSTTSGETDPTTIFPCKECGKVFFKIKSRNAHMKTHRQQEEQQRQKAQKAAFAAEMAATIERTTGPVGAPELLPLDQLSLMKPVKDVDILDDDVVQQLGVMDEAEVVGTDLLLDDQDSVLLQGDTEL
Take B4: in assay [1], the binding result is “binds”.
